Data published in EP4570818A1.
Results are given in words; binding and its absence hold for the method and conditions named. Some binding calls cover weakened binding; strength is not graded here.

Chains of the proteins cited; added tags and fusions are not shown. Residues count along the entry.
UniProt P05067, residues 672-713: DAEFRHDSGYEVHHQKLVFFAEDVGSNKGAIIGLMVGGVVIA

Target: Aβo*3F (Aβ oligomer specifically bound by the antibody 3F), prepared in vitro (UniProt P05067)
Test: ELISA

B1: single-chain antibody 7B (scFv)
scFv: MAEVQLLESGGGLVQPGGSLRLSCAASGFTFSSYAMSWVRQAPGKGLEWVSGISNLGLTTGYADSVKGRFTISRDNSKNTLYLQMNSLRAEDTAVYYCAKTTSRFDYWGQGTLVTVSSGGGGSGGGGSGGGGSTDIQMTQSPSSLSASVGDRVTITCRASQSISSYLNWYQQKPGKAPKLLIYKASYLQSGVPSRFSGSGSGTDFTLTISSLQPEDFATYYCQQMRRKPVTFGQGTKVEIKR
For B1, the binding was “binds”.
